According to PMC13430412:
Results are given in words; binding and its absence hold for the method and conditions named. For some assays here: Where a sequence is shown, tags or fusion partners need not be part of it.

The chains behind the UniProt entries cited, without tags or fusion partners. Where a name states a change or a piece, a line headed by the entry shows the natural chain unless it says otherwise.
UniProt P51149: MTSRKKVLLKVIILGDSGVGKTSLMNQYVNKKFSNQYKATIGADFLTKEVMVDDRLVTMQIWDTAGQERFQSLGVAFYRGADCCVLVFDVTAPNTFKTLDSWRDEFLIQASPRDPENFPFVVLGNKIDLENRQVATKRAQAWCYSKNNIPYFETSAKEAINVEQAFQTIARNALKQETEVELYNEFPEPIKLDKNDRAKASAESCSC
UniProt Q709C8: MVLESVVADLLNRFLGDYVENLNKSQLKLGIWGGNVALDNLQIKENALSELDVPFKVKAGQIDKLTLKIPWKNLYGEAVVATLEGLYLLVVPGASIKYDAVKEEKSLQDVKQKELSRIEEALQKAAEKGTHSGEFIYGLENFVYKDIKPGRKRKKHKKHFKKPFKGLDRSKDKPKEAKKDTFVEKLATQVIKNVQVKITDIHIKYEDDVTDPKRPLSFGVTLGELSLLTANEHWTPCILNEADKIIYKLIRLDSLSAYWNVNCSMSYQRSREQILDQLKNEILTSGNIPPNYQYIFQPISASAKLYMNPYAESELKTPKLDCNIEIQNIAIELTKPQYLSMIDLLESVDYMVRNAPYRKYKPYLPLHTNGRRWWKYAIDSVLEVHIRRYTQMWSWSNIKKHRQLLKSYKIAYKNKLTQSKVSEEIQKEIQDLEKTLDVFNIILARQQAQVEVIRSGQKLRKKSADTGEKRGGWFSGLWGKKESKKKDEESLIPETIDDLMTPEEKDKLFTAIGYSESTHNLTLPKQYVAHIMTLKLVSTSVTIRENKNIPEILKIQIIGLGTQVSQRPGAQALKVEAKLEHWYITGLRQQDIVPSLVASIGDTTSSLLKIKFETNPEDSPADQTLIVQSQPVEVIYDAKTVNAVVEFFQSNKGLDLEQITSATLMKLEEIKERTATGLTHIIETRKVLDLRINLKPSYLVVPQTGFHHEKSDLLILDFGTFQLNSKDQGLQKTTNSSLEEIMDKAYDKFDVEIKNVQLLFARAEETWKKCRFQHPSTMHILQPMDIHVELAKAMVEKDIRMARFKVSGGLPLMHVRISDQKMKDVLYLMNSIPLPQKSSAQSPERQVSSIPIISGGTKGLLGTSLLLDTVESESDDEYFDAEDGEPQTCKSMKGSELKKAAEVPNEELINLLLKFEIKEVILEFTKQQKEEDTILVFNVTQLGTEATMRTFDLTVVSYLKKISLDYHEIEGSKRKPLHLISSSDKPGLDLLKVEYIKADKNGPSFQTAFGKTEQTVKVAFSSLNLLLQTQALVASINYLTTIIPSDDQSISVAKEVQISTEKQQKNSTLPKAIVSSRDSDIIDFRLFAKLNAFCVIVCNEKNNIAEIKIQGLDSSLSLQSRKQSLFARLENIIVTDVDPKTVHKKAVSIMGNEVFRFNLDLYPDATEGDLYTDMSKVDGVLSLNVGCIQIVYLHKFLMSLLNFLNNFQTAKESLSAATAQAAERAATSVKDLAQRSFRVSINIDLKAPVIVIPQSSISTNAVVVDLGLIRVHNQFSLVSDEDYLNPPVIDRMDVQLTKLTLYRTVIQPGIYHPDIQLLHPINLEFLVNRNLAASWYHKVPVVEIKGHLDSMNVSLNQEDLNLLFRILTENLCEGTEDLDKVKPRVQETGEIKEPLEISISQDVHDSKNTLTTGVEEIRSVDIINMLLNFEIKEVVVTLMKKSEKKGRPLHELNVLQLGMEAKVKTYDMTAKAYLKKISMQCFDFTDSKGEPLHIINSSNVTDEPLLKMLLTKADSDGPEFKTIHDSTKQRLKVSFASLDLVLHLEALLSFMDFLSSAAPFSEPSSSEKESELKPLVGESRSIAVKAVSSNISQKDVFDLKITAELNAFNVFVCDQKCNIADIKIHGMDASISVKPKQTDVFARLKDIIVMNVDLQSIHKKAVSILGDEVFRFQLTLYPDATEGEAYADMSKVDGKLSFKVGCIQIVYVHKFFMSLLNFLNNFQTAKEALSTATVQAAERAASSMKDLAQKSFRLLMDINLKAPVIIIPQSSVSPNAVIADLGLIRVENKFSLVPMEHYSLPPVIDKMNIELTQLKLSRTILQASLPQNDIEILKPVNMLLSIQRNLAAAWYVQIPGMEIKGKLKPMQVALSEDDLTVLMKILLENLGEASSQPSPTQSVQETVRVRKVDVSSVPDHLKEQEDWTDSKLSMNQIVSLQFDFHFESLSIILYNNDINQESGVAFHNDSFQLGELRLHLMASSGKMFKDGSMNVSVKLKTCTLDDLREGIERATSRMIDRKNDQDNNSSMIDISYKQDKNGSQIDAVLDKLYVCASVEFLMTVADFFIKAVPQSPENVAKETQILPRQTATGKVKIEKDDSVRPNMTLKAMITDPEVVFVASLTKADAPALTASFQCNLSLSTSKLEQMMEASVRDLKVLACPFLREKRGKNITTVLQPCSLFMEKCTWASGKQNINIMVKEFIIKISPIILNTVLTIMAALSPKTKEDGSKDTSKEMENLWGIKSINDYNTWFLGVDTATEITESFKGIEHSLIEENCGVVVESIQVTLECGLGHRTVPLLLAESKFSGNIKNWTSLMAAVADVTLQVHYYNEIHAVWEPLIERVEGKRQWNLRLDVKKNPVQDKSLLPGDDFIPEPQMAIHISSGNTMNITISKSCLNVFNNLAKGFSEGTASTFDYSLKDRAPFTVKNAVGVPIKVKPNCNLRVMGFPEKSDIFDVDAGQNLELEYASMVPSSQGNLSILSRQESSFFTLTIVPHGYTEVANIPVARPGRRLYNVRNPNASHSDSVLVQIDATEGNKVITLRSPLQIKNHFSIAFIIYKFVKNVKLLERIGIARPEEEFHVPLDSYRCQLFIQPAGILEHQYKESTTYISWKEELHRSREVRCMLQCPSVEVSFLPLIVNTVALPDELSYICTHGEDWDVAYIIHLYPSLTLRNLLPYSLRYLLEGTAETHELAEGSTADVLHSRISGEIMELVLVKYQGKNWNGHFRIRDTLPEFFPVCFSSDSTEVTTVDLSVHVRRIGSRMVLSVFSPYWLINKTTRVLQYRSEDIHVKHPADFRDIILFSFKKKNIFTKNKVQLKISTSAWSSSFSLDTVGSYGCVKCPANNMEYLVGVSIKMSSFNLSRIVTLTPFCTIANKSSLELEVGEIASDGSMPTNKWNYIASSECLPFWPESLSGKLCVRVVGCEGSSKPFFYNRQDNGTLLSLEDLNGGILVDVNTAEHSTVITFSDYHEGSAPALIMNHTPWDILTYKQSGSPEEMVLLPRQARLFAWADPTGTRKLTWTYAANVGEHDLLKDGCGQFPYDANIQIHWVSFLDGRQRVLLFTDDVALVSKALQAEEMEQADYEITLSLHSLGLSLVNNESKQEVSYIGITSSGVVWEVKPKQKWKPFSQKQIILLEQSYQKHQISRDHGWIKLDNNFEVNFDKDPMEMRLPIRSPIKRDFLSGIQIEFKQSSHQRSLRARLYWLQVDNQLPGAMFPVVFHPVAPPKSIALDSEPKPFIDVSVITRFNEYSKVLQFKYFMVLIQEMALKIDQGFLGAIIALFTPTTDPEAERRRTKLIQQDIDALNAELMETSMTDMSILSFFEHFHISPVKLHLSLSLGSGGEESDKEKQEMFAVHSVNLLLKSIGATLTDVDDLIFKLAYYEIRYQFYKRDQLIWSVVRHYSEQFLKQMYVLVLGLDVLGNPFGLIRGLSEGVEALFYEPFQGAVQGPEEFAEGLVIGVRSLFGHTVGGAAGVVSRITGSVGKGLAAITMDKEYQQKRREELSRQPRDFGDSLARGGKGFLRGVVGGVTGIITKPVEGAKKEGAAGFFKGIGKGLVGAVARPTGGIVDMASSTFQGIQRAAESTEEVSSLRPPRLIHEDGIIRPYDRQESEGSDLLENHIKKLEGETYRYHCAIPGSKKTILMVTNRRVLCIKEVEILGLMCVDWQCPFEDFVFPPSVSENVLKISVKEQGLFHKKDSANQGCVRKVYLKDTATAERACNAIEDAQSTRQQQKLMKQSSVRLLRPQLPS

Legend:
[1] = biological target: Rab7A(T22N)-6xHis (human) (UniProt P51149); assay: liposome co-flotation; purified VPS13C constructs with SUVs (5% DGS-NTA) bearing His-tagged protein, 1 mM GTP, 2 mM Mg2+, room temperature 20 min; OptiPrep gradient, top fraction by SDS-PAGE; both purified
6xHis-ATG7 = biological target: T1, 6xHis-ATG7 (UniProt O95352); assay: as above
T1 sequence: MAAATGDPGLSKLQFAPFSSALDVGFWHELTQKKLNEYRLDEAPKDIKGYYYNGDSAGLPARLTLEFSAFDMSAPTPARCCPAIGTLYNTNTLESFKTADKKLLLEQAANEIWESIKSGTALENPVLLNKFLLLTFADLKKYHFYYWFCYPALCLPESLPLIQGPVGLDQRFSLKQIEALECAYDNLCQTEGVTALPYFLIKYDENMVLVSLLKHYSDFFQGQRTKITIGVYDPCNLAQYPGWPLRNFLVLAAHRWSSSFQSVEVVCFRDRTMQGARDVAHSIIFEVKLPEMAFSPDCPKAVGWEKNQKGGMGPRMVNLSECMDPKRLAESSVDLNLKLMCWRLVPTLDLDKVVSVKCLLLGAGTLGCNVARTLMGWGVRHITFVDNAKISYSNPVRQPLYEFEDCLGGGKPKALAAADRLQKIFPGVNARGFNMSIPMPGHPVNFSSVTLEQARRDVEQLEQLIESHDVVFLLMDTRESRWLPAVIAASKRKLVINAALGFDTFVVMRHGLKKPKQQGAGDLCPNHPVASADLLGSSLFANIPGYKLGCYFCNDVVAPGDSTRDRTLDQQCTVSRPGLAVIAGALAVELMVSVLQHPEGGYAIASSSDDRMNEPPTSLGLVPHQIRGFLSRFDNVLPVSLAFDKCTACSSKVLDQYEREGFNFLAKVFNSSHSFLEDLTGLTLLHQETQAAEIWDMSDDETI

Substance: VPS13C-ΔATG2C-3xFLAG (from UniProt Q709C8)
- binding [1]: no binding
- binding (6xHis-ATG7): no binding
